Reference: article PMC6294559

How the values were obtained:
[1] = biological target: T1, HAC1 TAZ^C (1575-1667 aa) (Arabidopsis) (UniProt Q9C5X9); experiment: two-hybrid; NPR1 fragments in pGADT7, HAC1 fragments in pGBKT7, yeast strain AH109; growth on drop-out medium lacking leucine, tryptophan, adenine and histidine with 1 or 3 mM 3-AT
T1 sequence: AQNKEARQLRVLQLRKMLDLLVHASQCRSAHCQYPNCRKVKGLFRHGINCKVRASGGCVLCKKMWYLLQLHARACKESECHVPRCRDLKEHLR

[2] = biological target: T2, HAC1 TAZ^N (624-716 aa) (Arabidopsis) (UniProt Q9C5X9); experiment: as above
T2 sequence: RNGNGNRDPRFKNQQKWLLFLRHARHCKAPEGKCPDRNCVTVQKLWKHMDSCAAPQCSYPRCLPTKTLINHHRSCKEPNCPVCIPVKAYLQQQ

binding [1]: binds | binding [2]: binds
Substance: C-terminal region of NPR1 (Arabidopsis) (domain or fragment)

Results are given in words; binding and its absence hold for the method and conditions named. A result given as binding can be weak or reduced; the word gives no strength.
